Data as given in article PMC4267655, “Brr2p carboxy-terminal Sec63 domain modulates Prp16 splicing RNA helicase” (Nucleic Acids Research, 2014).
Changes are numbered by the printed parent chain. Names may count otherwise. Results are given in words; binding and its absence hold for the method and conditions named. Some binding calls cover weakened binding; strength is not graded here.

Tests used:
Test in all cases: co-IP; Prp16p (3 μg) and Sec63-2p (1.5 μg) overnight at 4°C with protein A dynabeads and anti-Prp16p-029; 50-mM Tris-HCl pH 7.5, 150-mM NaCl, 1-mM MgSO4, 0.02% NP-40, BSA, glycogen, tRNA; with or without RNase A (30 ng/μl), ATP (5 mM) or poly I,C RNA (500 ng/μl); Sec63-2p detected with anti-His-HRP; both purified
[1] = target: T1, recombinant Prp16p R686I (budding yeast) (UniProt P15938)
T1 sequence: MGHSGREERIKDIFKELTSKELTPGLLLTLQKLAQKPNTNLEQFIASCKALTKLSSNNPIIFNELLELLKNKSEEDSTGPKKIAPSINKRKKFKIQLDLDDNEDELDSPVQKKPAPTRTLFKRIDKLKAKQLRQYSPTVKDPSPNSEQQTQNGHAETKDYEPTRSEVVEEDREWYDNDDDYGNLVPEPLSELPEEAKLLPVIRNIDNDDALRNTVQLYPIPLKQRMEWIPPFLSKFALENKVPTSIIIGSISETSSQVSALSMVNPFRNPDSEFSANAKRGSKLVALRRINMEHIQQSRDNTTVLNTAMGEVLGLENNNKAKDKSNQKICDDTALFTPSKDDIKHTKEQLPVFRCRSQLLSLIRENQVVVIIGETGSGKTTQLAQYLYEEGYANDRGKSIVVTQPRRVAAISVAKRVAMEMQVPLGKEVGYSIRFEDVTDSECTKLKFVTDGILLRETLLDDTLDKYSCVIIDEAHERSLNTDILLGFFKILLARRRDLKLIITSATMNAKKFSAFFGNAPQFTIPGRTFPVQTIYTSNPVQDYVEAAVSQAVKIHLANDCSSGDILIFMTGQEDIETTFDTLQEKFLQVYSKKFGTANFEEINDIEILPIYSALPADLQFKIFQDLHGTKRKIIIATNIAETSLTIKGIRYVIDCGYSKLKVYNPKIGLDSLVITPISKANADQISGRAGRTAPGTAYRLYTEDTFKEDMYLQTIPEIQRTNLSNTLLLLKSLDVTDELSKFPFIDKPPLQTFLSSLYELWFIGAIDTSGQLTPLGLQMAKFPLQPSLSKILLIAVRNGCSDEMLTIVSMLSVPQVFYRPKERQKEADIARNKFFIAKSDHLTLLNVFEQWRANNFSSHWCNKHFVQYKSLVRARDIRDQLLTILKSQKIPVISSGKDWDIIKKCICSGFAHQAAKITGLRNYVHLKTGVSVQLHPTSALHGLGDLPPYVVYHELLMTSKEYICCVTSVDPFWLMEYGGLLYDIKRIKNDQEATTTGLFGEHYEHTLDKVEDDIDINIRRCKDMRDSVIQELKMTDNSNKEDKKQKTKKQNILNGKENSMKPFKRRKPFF

[2] = target: T2, recombinant Prp16p DE473-4AA (budding yeast) (UniProt P15938)
T2 sequence: T1 sequence with D473A, E474A, I686R

[3] = target: T3, recombinant Prp16p (wild type) (budding yeast, UniProt P15938 1-1071)
T3 sequence (looked up): T1 sequence with I686R

Measured: binding

B1: recombinant Brr2 Sec63-2p (domain or fragment, budding yeast, UniProt P32639 1846-2160, looked up)
chain: TLSNGLIASHYGVSFFTIQSFVSSLSNTSTLKNMLYVLSTAVEFESVPLRKGDRALLVKLSKRLPLRFPEHTSSGSVSFKVFLLLQAYFSRLELPVDFQNDLKDILEKVVPLINVVVDILSANGYLNATTAMDLAQMLIQGVWDVDNPLRQIPHFNNKILEKCKEINVETVYDIMALEDEERDEILTLTDSQLAQVAAFVNNYPNVELTYSLNNSDSLISGVKQKITIQLTRDVEPENLQVTSEKYPFDKLESWWLVLGEVSKKELYAIKKVTLNKETQQYELEFDTPTSGKHNLTIWCVCDSYLDADKELSFEI
notes: Brr2p, budding yeast, carboxy-terminal Sec63-2 domain; detected with anti-His-HRP antibodies; also called WT Sec63-2p; Brr2 Sec63-2p domain; source: E. coli BL21 RIL, purified (Hi-Trap IMAC HP charged with Ni)
binds: [1] | [2] | [3]

B2: recombinant Brr2 Sec63-2 R1899Gp (domain or fragment, budding yeast, UniProt P32639 1846-2160, looked up)
chain: B1 chain with R54G
notes: Brr2p, budding yeast, carboxy-terminal Sec63-2 domain; also called Sec63-2 R1899G mutant protein; Brr2-R1899G mutant protein; source: E. coli BL21 RIL, purified (Hi-Trap IMAC HP charged with Ni)
binds: [1] | [2] | [3]
